{
  "source": "patent US10829517B2",
  "about": "“Method for treating or/and preventing calcium deficiency-related diseases” (National Chung Hsing University, priority 2017, dated 2020)",
  "system": "L-type potential-sensitive calcium channel",
  "note": "Ends that are not written are not given here.",
  "data": [
    {"compound": "COC(=O)C1=C(C)NC(C)=C(C(=O)OC)C1c1ccccc1[N+](=O)[O-]", "note": "[nifedipine, reference compound]", "values": [
      {"measurement": "blocking of calcium ion entry into Caco-2 cells", "result": "cannot block the entry of calcium ions into Caco-2 cells"}
    ]},
    {"compound": "TEVPAINTIASAEPTVH [SEQ ID No. 1, TEVPAINTIASAEPTVH]", "values": [
      {"measurement": "fluorescence intensity in Caco-2 cells after the peptide, between nifedipine groups", "result": "no significant difference"}
    ]}
  ]
}
